Data: US9121859B2, “Compounds and methods for determination of FKBP-binding immunosuppressant drugs” (Siemens Healthcare Diagnostics Inc., priority 2012, dated 2015)

What was measured:
[1] = system: endogenous specific binding proteins (FKBP) in whole blood; test: ACMIA assay for tacrolimus: release of tacrolimus from endogenous binding substances in spiked whole blood by releasing agent; details: releasing agent 10 μg/mL in pretreatment solution
Procedure: (§1) Testing was carried out using the DIMENSION® RxL analyzer, available from Siemens Healthcare Diagnostics Inc., Newark Del. The instrument was employed using ACMIA immunoassay technology. The ACMIA assay method is described in U.S. Pat. Nos. 7,842,475, 7,186,518, 5,147,529, 5,128,103, 5,158,871, 4,661,408, 5,151,348, 5,302,532, 5,422,284, 5,447,870, and 5,434,051, the disclosures of which are incorporated herein in their entirety. In the embodiment of the ACMIA method used herein and discussed in more detail below, competition between tacrolimus analog on chrome particles and tacrolimus in patient samples for antibody for tacrolimus conjugated to an enzyme (the “conjugate”) is utilized to determine the amount of tacrolimus in patient samples. Conjugate that binds to the tacrolimus analog on chrome particles is removed by magnetic separation. The enzymatic activity from the conjugate remaining in the supernatant is measured and is directly proportional to the amount of tacrolimus in the patient sample. […] The enzymatic activity observed when no chrome particle is present is indicative of the total amount of enzymatic activity in the conjugate.
(§2) Preparation of pretreatment reagent solution. This pretreatment solution was prepared to contain an amount of releasing agent, 6.8 mg/mL PIPES 1.5 sodium salt (buffer), 0.3 mg/mL EDTA disodium (clot prevention agent), 1.0 mg/mL saponin (hemolytic agent), 0.2% PROCLIN® 300 (preservative), 0.024 mg/mL neomycin sulfate (preservative) and 0.99 mg/mL NaN3, pH 6.5. The amount of releasing agent in each of the pretreatment reagent solutions was 10 μg/mL. The releasing agent concentration in the final reaction mixture was equivalent to 46.7 μg/mL of the analog added from the sample.
Preparation of anti-tacrolimus antibody-β-galactosidase conjugate. Monoclonal anti-tacrolimus antibody (clone 1H6, see for example U.S. Pat. No. 7,078,495) is conjugated to β-galactosidase using a standard heterobifunctional SMCC (succinimidyl trans-4-(N-maleimidylmethyl)cyclohexane-1-carboxylate) linker according to known techniques. The antibody conjugate solution contains approximately 7.5 μg/mL anti-tacrolimus antibody-β-galactosidase conjugate, 30 mg/mL protease free bovine serum albumin, 0.126 mg/mL MgCl2, 0.03 mL/mL of ethylene glycol, 35.14 mg/mL PIPES 1.5 sodium salt, 50 mg/mL NaCl and beta-gal mutein (inactivated β-galactosidase), pH 6.5.
The chrome particle reagent contained approximately 2.5 mg/mL tacrolimus chrome particle slurry, 60.8 mg/mL trehalose dihydrate and 7.2 mg/mL CARBOWAX®.
(§3) Preparation of samples. Aliquots of a whole blood pool are spiked with an amount of sirolimus so that the resulting concentration of sirolimus in the whole blood samples in the calibrators is as set forth in Table 1 (0.0, 5.1, 10.1, 20.6 and 31.6 ng/mL). Aliquots of a whole blood pool are spiked with an amount of tacrolimus so that the resulting concentration of […] (0.0, 2.6, 5.3, 11.6 and 30.1 ng/mL).
(§4) Pretreatment of samples. A set of samples was treated as follows: To each sample was added an amount of the pretreatment reagent solution from above for displacing sirolimus in the sample from endogenous specific binding proteins. The samples were incubated at 37° C. for a period of 140 minutes. Subsequently, each sample was subjected to the aforementioned assay, which is further described below; and signal (mAU) was measured and related to a concentration of analyte that represents the amount of free analyte (analyte that is not bound by endogeneous binding substances plus analyte that was displaced from endogeneous binding substances) in the samples.
The above format for releasing an analyte (using the concentration of releasing agent (Displacer) shown) and conducting an assay for the analyte was repeated for samples containing tacrolimus.

[2] = system: endogenous specific binding proteins (FKBP) in whole blood; test: ACMIA assay for sirolimus: release of sirolimus from endogenous binding substances in spiked whole blood by releasing agent; details: releasing agent 10 μg/mL in pretreatment solution
Procedure: as §1, §2
Preparation of anti-sirolimus antibody-β-galactosidase conjugate. […] The antibody conjugate solution contained approximately 7.5 μg/mL anti-sirolimus antibody-β-galactosidase conjugate, 30 mg/mL protease free bovine serum albumin, 0.126 mg/mL MgCl2, 0.03 mL/mL of ethylene glycol, 35.14 mg/mL PIPES 1.5 sodium salt, 50 mg/mL NaCl and beta-gal mutein (inactivated β-galactosidase), pH 6.5.
Magnetic chrome particle preparation. Sirolimus chrome particles (immunoassay solid phase) were prepared by conjugating sirolimus-biotin conjugate to streptavidin-coated chrome particle (prepared in a manner similar to that described in U.S. Pat. No. 7,842,475). The chrome particle reagent contained approximately 2.5 mg/mL sirolimus chrome particle slurry, 60.8 mg/mL trehalose dihydrate and 7.2 mg/mL CARBOWAX®.
as §3, §4
Assay. The ACMIA assay for sirolimus was carried out as follows: 15 μL of a whole blood sample from above was mixed with the pretreatment reagent solution from above (Displacer) (Table 1) in a vessel on the DIMENSION® RxL analyzer.

[3] = tacrolimus calibrator 0.0 ng/mL
[4] = tacrolimus calibrator 2.6 ng/mL
[5] = tacrolimus calibrator 5.3 ng/mL
[6] = tacrolimus calibrator 11.6 ng/mL
[7] = tacrolimus calibrator 30.1 ng/mL
[8] = sirolimus calibrator 10.1 ng/mL
[9] = sirolimus calibrator 20.6 ng/mL
[10] = sirolimus calibrator 31.6 ng/mL

Row | Compound | Instrument signal observed for calibrators [1, 3] [mAU] | Instrument signal observed for calibrators [1, 4] [mAU] | Instrument signal observed for calibrators [1, 5] [mAU] | Instrument signal observed for calibrators [1, 6] [mAU] | Instrument signal observed for calibrators [1, 7] [mAU] | Instrument signal observed for calibrators ([2]; sirolimus calibrator 0.0 ng/mL) [mAU] | Instrument signal observed for calibrators ([2]; sirolimus calibrator 5.1 ng/mL) [mAU] | Instrument signal observed for calibrators [2, 8] [mAU] | Instrument signal observed for calibrators [2, 9] [mAU] | Instrument signal observed for calibrators [2, 10] [mAU]
1 | Diels-Alder adducts of 4-phenyl-1,2,4-triazoline-3,5-dione (PTAD) and sirolimus [Mixture V + VI] | 26 | 42 | 51 | 66 | 89 | 223 | 281 | 317 | 359 | 395
2 | C=CC[C@@H]1/C=C(\C)C[C@H](C)C[C@H](OC)[C@H]2O[C@@](O)(C(=O)C(=O)N3CCCC[C@H]3C(=O)O[C@H](/C(C)=C/[C@@H]3CC[C@@H](O)[C@H](OC)C3)[C@H](C)[C@@H](O)CC1=O)[C@H](C)C[C@@H]2OC [Tacro, tacrolimus] |  |  |  |  |  | 199 | 242 | 261 | 300 | 339
3 | CO[C@H]1C[C@@H]2CC[C@@H](C)[C@@](O)(O2)C(=O)C(=O)N2CCCC[C@H]2C(=O)O[C@H]([C@H](C)C[C@@H]2CC[C@@H](O)[C@H](OC)C2)CC(=O)[C@H](C)/C=C(\C)[C@@H](O)[C@@H](OC)C(=O)[C@H](C)C[C@H](C)CCCCCC1C (stereo partly shown) [XI, hydrogenated sirolimus] | 23 | 36 | 42 | 55 | 79 | 443 | 447 | 451 | 450 | 448
